In publication PMC9677703:
Results are given in words; binding and its absence hold for the method and conditions named. In cells and extracts the contact can be indirect.

Amino acid sequences for entries named in this document (tags omitted). A change or cut given only in a name is not applied to a line headed by its entry.
UniProt P61328: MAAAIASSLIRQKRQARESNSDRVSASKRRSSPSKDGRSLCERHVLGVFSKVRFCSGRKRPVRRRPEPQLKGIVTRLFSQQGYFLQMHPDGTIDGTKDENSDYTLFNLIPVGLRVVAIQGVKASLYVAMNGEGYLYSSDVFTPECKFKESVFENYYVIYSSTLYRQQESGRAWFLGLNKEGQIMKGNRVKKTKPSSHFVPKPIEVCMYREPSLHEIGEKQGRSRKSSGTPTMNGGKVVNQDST
UniProt Q14978: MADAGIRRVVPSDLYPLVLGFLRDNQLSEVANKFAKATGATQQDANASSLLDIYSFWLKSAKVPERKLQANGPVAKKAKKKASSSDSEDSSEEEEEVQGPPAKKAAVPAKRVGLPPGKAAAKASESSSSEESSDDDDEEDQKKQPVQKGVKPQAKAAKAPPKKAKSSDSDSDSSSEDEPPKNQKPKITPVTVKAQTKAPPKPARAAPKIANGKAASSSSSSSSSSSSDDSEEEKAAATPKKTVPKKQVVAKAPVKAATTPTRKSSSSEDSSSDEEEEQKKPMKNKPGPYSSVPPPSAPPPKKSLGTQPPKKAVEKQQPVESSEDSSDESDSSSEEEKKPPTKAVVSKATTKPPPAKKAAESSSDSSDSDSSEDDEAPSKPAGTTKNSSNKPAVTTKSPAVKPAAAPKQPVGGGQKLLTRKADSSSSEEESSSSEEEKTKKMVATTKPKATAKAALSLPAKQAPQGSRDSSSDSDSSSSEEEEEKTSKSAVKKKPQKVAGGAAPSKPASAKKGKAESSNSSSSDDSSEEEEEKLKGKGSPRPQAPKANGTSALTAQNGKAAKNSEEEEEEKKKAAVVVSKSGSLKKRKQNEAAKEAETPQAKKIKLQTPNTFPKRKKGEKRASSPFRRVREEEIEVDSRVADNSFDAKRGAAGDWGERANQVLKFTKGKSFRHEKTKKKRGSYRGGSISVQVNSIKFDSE

Target: FGF12Δ-His (131–181 FGF12 deletion mutant) (UniProt P61328)
Experiment: pull-down; recombinant FGF12-His or FGF12Δ-His bound to Ni Sepharose (1 h, 4 °C), incubated with U2OS cell lysate (0.15 M KCl, 40 mM Tris, 1% NP-40, 1 mM EDTA, pH 7.2) overnight at 4 °C; western blotting; also with nuclease-treated lysate (no effect); only the target purified

For “nucleolar and coiled-body phosphoprotein 1 (from UniProt Q14978 1-699)”, the binding was “no binding”.
